The results in this text go back to article PMC6221362.

By UniProt entry, the sequences of proteins in these tests, tags left out.
UniProt Q61545: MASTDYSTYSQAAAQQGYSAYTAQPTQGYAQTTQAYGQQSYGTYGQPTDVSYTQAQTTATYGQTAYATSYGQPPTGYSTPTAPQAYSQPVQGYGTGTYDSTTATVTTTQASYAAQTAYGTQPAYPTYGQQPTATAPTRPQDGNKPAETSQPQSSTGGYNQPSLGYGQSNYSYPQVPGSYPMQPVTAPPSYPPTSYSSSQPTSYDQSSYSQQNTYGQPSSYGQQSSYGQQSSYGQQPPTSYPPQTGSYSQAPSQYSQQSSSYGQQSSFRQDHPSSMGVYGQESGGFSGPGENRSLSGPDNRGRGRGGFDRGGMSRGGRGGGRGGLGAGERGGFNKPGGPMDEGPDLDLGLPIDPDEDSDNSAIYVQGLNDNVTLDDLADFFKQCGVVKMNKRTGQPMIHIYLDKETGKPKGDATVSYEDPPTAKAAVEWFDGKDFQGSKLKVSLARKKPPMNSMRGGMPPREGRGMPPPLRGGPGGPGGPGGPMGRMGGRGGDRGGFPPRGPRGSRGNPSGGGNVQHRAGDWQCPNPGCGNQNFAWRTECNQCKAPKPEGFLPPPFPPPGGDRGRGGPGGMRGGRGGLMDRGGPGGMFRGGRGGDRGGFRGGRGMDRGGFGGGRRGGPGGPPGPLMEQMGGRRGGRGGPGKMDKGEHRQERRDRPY
UniProt Q9CWW7: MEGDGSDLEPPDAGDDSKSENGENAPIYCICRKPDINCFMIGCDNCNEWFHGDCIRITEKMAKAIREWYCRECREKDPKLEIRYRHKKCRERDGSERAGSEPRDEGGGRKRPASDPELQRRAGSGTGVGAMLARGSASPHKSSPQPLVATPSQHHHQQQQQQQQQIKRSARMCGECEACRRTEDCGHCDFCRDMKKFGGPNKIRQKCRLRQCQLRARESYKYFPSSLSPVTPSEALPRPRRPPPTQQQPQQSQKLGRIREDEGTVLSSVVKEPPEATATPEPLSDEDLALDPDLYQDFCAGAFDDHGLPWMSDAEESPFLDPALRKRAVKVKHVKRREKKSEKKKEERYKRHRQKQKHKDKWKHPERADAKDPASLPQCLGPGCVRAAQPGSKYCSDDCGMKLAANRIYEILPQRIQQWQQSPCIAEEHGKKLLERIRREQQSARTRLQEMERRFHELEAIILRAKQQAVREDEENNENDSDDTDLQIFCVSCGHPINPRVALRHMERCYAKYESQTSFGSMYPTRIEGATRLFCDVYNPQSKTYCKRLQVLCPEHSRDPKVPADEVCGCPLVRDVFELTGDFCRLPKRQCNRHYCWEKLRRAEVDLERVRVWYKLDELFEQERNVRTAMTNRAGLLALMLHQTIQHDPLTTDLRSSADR

No constants are given. Whether binding was seen depends on the method and setting. Binding seen in cells or lysates may run through a third protein.

In experiment [1] the target is EWSR1 (mouse (endogenous in 14 dpp B6 testis)) (UniProt Q61545). Briefly: co-IP; 14 dpp B6 testicular extract; co-IP with anti-EWSR1, with and without DNase I treatment; western blot for EWSR1 and CXXC1; non-immune IgG as control. In general terms: A western blot detects proteins with antibodies after separation by electrophoresis.
For the next experiment, the target named is HA-tagged EWSR1 (mouse) (UniProt Q61545). Briefly: co-IP; Myc-CXXC1, HA-EWSR1 and Flag-PRDM9 co-expressed in HEK293 cells; extract in Pierce IP buffer; antibodies against HA or Myc on protein G Dynabeads, overnight at 4°C; western blot for HA, Myc and Flag; with or without PRDM9.

As to “CxxC finger protein 1 (CXXC1) (from UniProt Q9CWW7 1-660)”, the binding result in experiment [1] is recorded as “no binding”. Regarding “Myc-tagged mouse CXXC1 (from UniProt Q9CWW7 1-660)”, the binding result with HA-tagged EWSR1 (mouse) is given as “no binding”.
